Assay results published in the supplement of paper PMC11546906.
Where a name gives a salt, the structure may show the parent alone. Some of the results follow. Repeats in this data set agree poorly, so a single value says little.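 Screen of FDA-approved drugs, each combined with colistin at one-eighth of its MIC, against a multidrug-resistant mcr-1-positive clinical E. coli isolate; growth read as OD600 after 24 h. Bacteria without drug were the growth control and plain broth the blank. A combination counted as active when OD600 fell below 0.2.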

Tested on: Escherichia coli 42 (mcr-1-positive clinical isolate)
Assay: OD600 after 24 h growth with compound plus colistin (absorbance units (OD600)); higher = more bacterial growth (less inhibition)
Settings: first compound 25 µM; colistin concentration 0.5 ug/mL; incubation time 24 h; 37 °C

Question: With O=C(CCCN1CCC(O)(c2ccc(Cl)cc2)CC1)c1ccc(F)cc1 [Haloperidol] + CCC(C)CCCC(=O)N[C@@H](CCN)C(=O)N[C@H](C(=O)N[C@@H](CCN)C(=O)N[C@H]1CCNC(=O)[C@H]([C@@H](C)O)NC(=O)[C@H](CCN)NC(=O)[C@H](CCN)NC(=O)[C@H](CC(C)C)NC(=O)[C@@H](CC(C)C)NC(=O)[C@H](CCN)NC1=O)[C@@H](C)O [colistin] as the compound, how does the OD600 read?
Answer: inactive: 0.871

Question: CN(C)CC/C=C1/c2ccccc2Sc2ccc(Cl)cc21 [Chlorprothixene hydrochloride] + CCC(C)CCCC(=O)N[C@@H](CCN)C(=O)N[C@H](C(=O)N[C@@H](CCN)C(=O)N[C@H]1CCNC(=O)[C@H]([C@@H](C)O)NC(=O)[C@H](CCN)NC(=O)[C@H](CCN)NC(=O)[C@H](CC(C)C)NC(=O)[C@@H](CC(C)C)NC(=O)[C@H](CCN)NC1=O)[C@@H](C)O [colistin] was tested. Which OD600 did it give?
Answer: inactive: 1.16

Question: For CN(Cc1ccc(C(C)(C)C)cc1)Cc1cccc2ccccc12 [Butenafine hydrochloride] + CCC(C)CCCC(=O)N[C@@H](CCN)C(=O)N[C@H](C(=O)N[C@@H](CCN)C(=O)N[C@H]1CCNC(=O)[C@H]([C@@H](C)O)NC(=O)[C@H](CCN)NC(=O)[C@H](CCN)NC(=O)[C@H](CC(C)C)NC(=O)[C@@H](CC(C)C)NC(=O)[C@H](CCN)NC1=O)[C@@H](C)O [colistin], which OD600 is on record?
Answer: inactive: 0.88

Question: For CC(C)(C)NC[C@H](O)COc1nsnc1N1CCOCC1 [(S)-Timolol Maleate] + CCC(C)CCCC(=O)N[C@@H](CCN)C(=O)N[C@H](C(=O)N[C@@H](CCN)C(=O)N[C@H]1CCNC(=O)[C@H]([C@@H](C)O)NC(=O)[C@H](CCN)NC(=O)[C@H](CCN)NC(=O)[C@H](CC(C)C)NC(=O)[C@@H](CC(C)C)NC(=O)[C@H](CCN)NC1=O)[C@@H](C)O [colistin], which OD600 is on record?
Answer: inactive: 0.846

Question: For COC(=O)C1=C(C)NC(C)=C(C(=O)OCCN(C)Cc2ccccc2)C1c1cccc([N+](=O)[O-])c1 (centres undefined) [Nicardipine hydrochloride] + CCC(C)CCCC(=O)N[C@@H](CCN)C(=O)N[C@H](C(=O)N[C@@H](CCN)C(=O)N[C@H]1CCNC(=O)[C@H]([C@@H](C)O)NC(=O)[C@H](CCN)NC(=O)[C@H](CCN)NC(=O)[C@H](CC(C)C)NC(=O)[C@@H](CC(C)C)NC(=O)[C@H](CCN)NC1=O)[C@@H](C)O [colistin], which OD600 is on record?
Answer: inactive: 0.913

Question: How did the OD600 turn out when CO[C@H]1C[C@@H]2CC[C@@H](C)[C@@](O)(O2)C(=O)C(=O)N2CCCC[C@H]2C(=O)O[C@H]([C@H](C)C[C@@H]2CC[C@@H](O)[C@H](OC)C2)CC(=O)[C@H](C)/C=C(\C)[C@@H](O)[C@@H](OC)C(=O)[C@H](C)C[C@H](C)/C=C/C=C/C=C/1C [Rapamycin] + CCC(C)CCCC(=O)N[C@@H](CCN)C(=O)N[C@H](C(=O)N[C@@H](CCN)C(=O)N[C@H]1CCNC(=O)[C@H]([C@@H](C)O)NC(=O)[C@H](CCN)NC(=O)[C@H](CCN)NC(=O)[C@H](CC(C)C)NC(=O)[C@@H](CC(C)C)NC(=O)[C@H](CCN)NC1=O)[C@@H](C)O [colistin] was run?
Answer: inactive: 1.01

Question: For Nc1ccc(/N=N/c2ccccc2)c(N)n1 [Phenazopyridine hydrochloride] + CCC(C)CCCC(=O)N[C@@H](CCN)C(=O)N[C@H](C(=O)N[C@@H](CCN)C(=O)N[C@H]1CCNC(=O)[C@H]([C@@H](C)O)NC(=O)[C@H](CCN)NC(=O)[C@H](CCN)NC(=O)[C@H](CC(C)C)NC(=O)[C@@H](CC(C)C)NC(=O)[C@H](CCN)NC1=O)[C@@H](C)O [colistin], which OD600 is on record?
Answer: inactive: 0.779

Question: With CC[C@@H](CO)NCCN[C@@H](CC)CO [Ethambutol dihydrochloride] + CCC(C)CCCC(=O)N[C@@H](CCN)C(=O)N[C@H](C(=O)N[C@@H](CCN)C(=O)N[C@H]1CCNC(=O)[C@H]([C@@H](C)O)NC(=O)[C@H](CCN)NC(=O)[C@H](CCN)NC(=O)[C@H](CC(C)C)NC(=O)[C@@H](CC(C)C)NC(=O)[C@H](CCN)NC1=O)[C@@H](C)O [colistin] as the compound, how does the OD600 read?
Answer: inactive: 1.02

Question: CC(C(=O)O)c1ccc(-c2ccccc2)c(F)c1 (centres undefined) [Flurbiprofen] + CCC(C)CCCC(=O)N[C@@H](CCN)C(=O)N[C@H](C(=O)N[C@@H](CCN)C(=O)N[C@H]1CCNC(=O)[C@H]([C@@H](C)O)NC(=O)[C@H](CCN)NC(=O)[C@H](CCN)NC(=O)[C@H](CC(C)C)NC(=O)[C@@H](CC(C)C)NC(=O)[C@H](CCN)NC1=O)[C@@H](C)O [colistin] was tested. Which OD600 did it give?
Answer: inactive: 0.785

Question: With CN1CCN(CCCN2c3ccccc3Sc3ccc(C(F)(F)F)cc32)CC1 [Trifluoperazine dihydrochloride] + CCC(C)CCCC(=O)N[C@@H](CCN)C(=O)N[C@H](C(=O)N[C@@H](CCN)C(=O)N[C@H]1CCNC(=O)[C@H]([C@@H](C)O)NC(=O)[C@H](CCN)NC(=O)[C@H](CCN)NC(=O)[C@H](CC(C)C)NC(=O)[C@@H](CC(C)C)NC(=O)[C@H](CCN)NC1=O)[C@@H](C)O [colistin] as the compound, how does the OD600 read?
Answer: active: 0.039

Question: Which OD600 does the source give for CC(O)(P(=O)(O)O)P(=O)(O)O [Sodium etidronate] + CCC(C)CCCC(=O)N[C@@H](CCN)C(=O)N[C@H](C(=O)N[C@@H](CCN)C(=O)N[C@H]1CCNC(=O)[C@H]([C@@H](C)O)NC(=O)[C@H](CCN)NC(=O)[C@H](CCN)NC(=O)[C@H](CC(C)C)NC(=O)[C@@H](CC(C)C)NC(=O)[C@H](CCN)NC1=O)[C@@H](C)O [colistin] here?
Answer: inactive: 1.08

Question: Which OD600 does the source give for N=c1nc(N2CCCCC2)cc(N)n1O [Minoxidil] + CCC(C)CCCC(=O)N[C@@H](CCN)C(=O)N[C@H](C(=O)N[C@@H](CCN)C(=O)N[C@H]1CCNC(=O)[C@H]([C@@H](C)O)NC(=O)[C@H](CCN)NC(=O)[C@H](CCN)NC(=O)[C@H](CC(C)C)NC(=O)[C@@H](CC(C)C)NC(=O)[C@H](CCN)NC1=O)[C@@H](C)O [colistin] here?
Answer: inactive: 1.1

Question: How did the OD600 turn out when CC1=C(/C=C/C(C)=C/C=C/C(C)=C/C(=O)O)C(C)(C)CCC1 [Retinoic acid] + CCC(C)CCCC(=O)N[C@@H](CCN)C(=O)N[C@H](C(=O)N[C@@H](CCN)C(=O)N[C@H]1CCNC(=O)[C@H]([C@@H](C)O)NC(=O)[C@H](CCN)NC(=O)[C@H](CCN)NC(=O)[C@H](CC(C)C)NC(=O)[C@@H](CC(C)C)NC(=O)[C@H](CCN)NC1=O)[C@@H](C)O [colistin] was run?
Answer: inactive: 0.935

Question: How did the OD600 turn out when O=C(N[C@H](CO)[C@H](O)c1ccc([N+](=O)[O-])cc1)C(Cl)Cl [Chloramphenicol] + CCC(C)CCCC(=O)N[C@@H](CCN)C(=O)N[C@H](C(=O)N[C@@H](CCN)C(=O)N[C@H]1CCNC(=O)[C@H]([C@@H](C)O)NC(=O)[C@H](CCN)NC(=O)[C@H](CCN)NC(=O)[C@H](CC(C)C)NC(=O)[C@@H](CC(C)C)NC(=O)[C@H](CCN)NC1=O)[C@@H](C)O [colistin] was run?
Answer: inactive: 0.849

Question: How did the OD600 turn out when C[C@H](CCC(=O)O)[C@H]1CC[C@H]2[C@@H]3[C@H](O)C[C@@H]4C[C@H](O)CC[C@]4(C)[C@H]3CC[C@]12C [Chenodeoxycholic acid] + CCC(C)CCCC(=O)N[C@@H](CCN)C(=O)N[C@H](C(=O)N[C@@H](CCN)C(=O)N[C@H]1CCNC(=O)[C@H]([C@@H](C)O)NC(=O)[C@H](CCN)NC(=O)[C@H](CCN)NC(=O)[C@H](CC(C)C)NC(=O)[C@@H](CC(C)C)NC(=O)[C@H](CCN)NC1=O)[C@@H](C)O [colistin] was run?
Answer: inactive: 1.2

Question: How did the OD600 turn out when Cc1ccc(/C(=C\CN2CCCC2)c2ccccn2)cc1 [Triprolidine hydrochloride monohydrate] + CCC(C)CCCC(=O)N[C@@H](CCN)C(=O)N[C@H](C(=O)N[C@@H](CCN)C(=O)N[C@H]1CCNC(=O)[C@H]([C@@H](C)O)NC(=O)[C@H](CCN)NC(=O)[C@H](CCN)NC(=O)[C@H](CC(C)C)NC(=O)[C@@H](CC(C)C)NC(=O)[C@H](CCN)NC1=O)[C@@H](C)O [colistin] was run?
Answer: inactive: 1.15

Question: How did the OD600 turn out when O=C(O)[C@@H](S)[C@@H](S)C(=O)O [Succimer] + CCC(C)CCCC(=O)N[C@@H](CCN)C(=O)N[C@H](C(=O)N[C@@H](CCN)C(=O)N[C@H]1CCNC(=O)[C@H]([C@@H](C)O)NC(=O)[C@H](CCN)NC(=O)[C@H](CCN)NC(=O)[C@H](CC(C)C)NC(=O)[C@@H](CC(C)C)NC(=O)[C@H](CCN)NC1=O)[C@@H](C)O [colistin] was run?
Answer: inactive: 1.02

Question: With N#C/C(=C1/SC[C@@H](c2ccc(Cl)cc2Cl)S1)n1ccnc1 [Luliconazole] + CCC(C)CCCC(=O)N[C@@H](CCN)C(=O)N[C@H](C(=O)N[C@@H](CCN)C(=O)N[C@H]1CCNC(=O)[C@H]([C@@H](C)O)NC(=O)[C@H](CCN)NC(=O)[C@H](CCN)NC(=O)[C@H](CC(C)C)NC(=O)[C@@H](CC(C)C)NC(=O)[C@H](CCN)NC1=O)[C@@H](C)O [colistin] as the compound, how does the OD600 read?
Answer: inactive: 1.06

Question: For NCCS [2-Aminoethanethiol] + CCC(C)CCCC(=O)N[C@@H](CCN)C(=O)N[C@H](C(=O)N[C@@H](CCN)C(=O)N[C@H]1CCNC(=O)[C@H]([C@@H](C)O)NC(=O)[C@H](CCN)NC(=O)[C@H](CCN)NC(=O)[C@H](CC(C)C)NC(=O)[C@@H](CC(C)C)NC(=O)[C@H](CCN)NC1=O)[C@@H](C)O [colistin], which OD600 is on record?
Answer: inactive: 0.97
